Results deposited as PubChem BioAssay AID1259254 (NCATS, 2017)
Assay: 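Gene knock-downs that lead to re-replication, shown by excess G2 DNA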 (primary screen). Cells: human HCT116 colorectal cancer cells. Reagents: single siRNA against human genes. Duration: 3 days. Measured: 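Nuclei stained with Hoechst and imaged; cell-cycle phase assigned by DNA content; G2 share scaled per plate, non-targeting siRNA 0%, GMNN siRNA 100%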. Direction: G2 robust z-score and G2 cells, % of GMNN control: higher = more G2 cells, more excess DNA replication. Call rule: 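Active siRNAs have a G2 robust z of 5 or more median absolute deviations over the median, which in these data means about 38% or higher of GMNN control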.
In all, the deposit lists about 59,000 reagents; this is a random part of them. In the full data, about 1,550 (2.6%) got an active call. 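G2 share is only a proxy for re-replication; each gene was hit by three separate siRNAs, and active genes were retested.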 Unmarked entries are inactive. The numbers tell different reagents against one gene apart. Further read-outs or replicates are left out here. Not given: the amount of reagent.

ZNF7 (GeneID 7553) #1
- G2 robust z-score: -0.597
- G2 cells, % of GMNN control: -1.24

ZNF7 (GeneID 7553) #2
- G2 robust z-score: -0.272
- G2 cells, % of GMNN control: 1.06

ZNF7 (GeneID 7553) #3
- G2 robust z-score: -0.781
- G2 cells, % of GMNN control: -2.53

HDC (GeneID 3067) #1
- G2 robust z-score: 1.53
- G2 cells, % of GMNN control: 13.7

HDC (GeneID 3067) #2
- G2 robust z-score: -1.15
- G2 cells, % of GMNN control: -5.1

HDC (GeneID 3067) #3
- G2 robust z-score: -0.459
- G2 cells, % of GMNN control: -0.261

RPL17P39 (GeneID 645296) #1
- G2 robust z-score: 3.54
- G2 cells, % of GMNN control: 27.9

RPL17P39 (GeneID 645296) #2
- G2 robust z-score: -0.0337
- G2 cells, % of GMNN control: 2.73

RPL17P39 (GeneID 645296) #3
- G2 robust z-score: -0.255
- G2 cells, % of GMNN control: 1.18

COQ10B (GeneID 80219) #1
- G2 robust z-score: 0.3
- G2 cells, % of GMNN control: 5.08

COQ10B (GeneID 80219) #2
- G2 robust z-score: 1.08
- G2 cells, % of GMNN control: 10.6

COQ10B (GeneID 80219) #3
- G2 robust z-score: -1.3
- G2 cells, % of GMNN control: -6.16

OPN4 (GeneID 94233) #1
- G2 robust z-score: -0.311
- G2 cells, % of GMNN control: 0.777

OPN4 (GeneID 94233) #2
- G2 robust z-score: 1.29
- G2 cells, % of GMNN control: 12

OPN4 (GeneID 94233) #3
- G2 robust z-score: 2.17
- G2 cells, % of GMNN control: 18.3

The list goes on; the last 4 above are carried over.
COQ10B (GeneID 80219) #3
- G2 robust z-score: -1.3
- G2 cells, % of GMNN control: -6.16

OPN4 (GeneID 94233) #1
- G2 robust z-score: -0.311
- G2 cells, % of GMNN control: 0.777

OPN4 (GeneID 94233) #2
- G2 robust z-score: 1.29
- G2 cells, % of GMNN control: 12

OPN4 (GeneID 94233) #3
- G2 robust z-score: 2.17
- G2 cells, % of GMNN control: 18.3

NIM1K (GeneID 167359) #1
- G2 robust z-score: 0.0448
- G2 cells, % of GMNN control: 3.28

NIM1K (GeneID 167359) #2
- G2 robust z-score: 1.03
- G2 cells, % of GMNN control: 10.2

NIM1K (GeneID 167359) #3
- G2 robust z-score: 0.113
- G2 cells, % of GMNN control: 3.76

RO60 (GeneID 6738) #1
- G2 robust z-score: -0.574
- G2 cells, % of GMNN control: -1.07

RO60 (GeneID 6738) #2
- G2 robust z-score: -0.258
- G2 cells, % of GMNN control: 1.15

RO60 (GeneID 6738) #3
- G2 robust z-score: -0.305
- G2 cells, % of GMNN control: 0.822

S100PBP (GeneID 64766) #1
- G2 robust z-score: -0.0541
- G2 cells, % of GMNN control: 2.59

S100PBP (GeneID 64766) #2
- G2 robust z-score: -0.178
- G2 cells, % of GMNN control: 1.71

S100PBP (GeneID 64766) #3
- G2 robust z-score: 1.78
- G2 cells, % of GMNN control: 15.5

H2AC6 (GeneID 8334) #1
- G2 robust z-score: 2.55
- G2 cells, % of GMNN control: 20.9

H2AC6 (GeneID 8334) #2
- G2 robust z-score: -0.634
- G2 cells, % of GMNN control: -1.5

H2AC6 (GeneID 8334) #3
- G2 robust z-score: 6.35 (active)
- G2 cells, % of GMNN control: 47.7

WFDC10A (GeneID 140832) #1
- G2 robust z-score: -0.044
- G2 cells, % of GMNN control: 2.66

WFDC10A (GeneID 140832) #2
- G2 robust z-score: 0.52
- G2 cells, % of GMNN control: 6.62

WFDC10A (GeneID 140832) #3
- G2 robust z-score: 0.447
- G2 cells, % of GMNN control: 6.11
